# In all, about 330,000 compounds went through this assay and about 7,700 (2.3%) were called active. Inconclusive means that the source gave no clear call. Such entries were picked first, then a sample of the others. The call rests on the fitted dose curve; in most records, active means well fitted inhibition curve with a large enough effect; inconclusive means small, poorly fitted or top-dose-only effect, or effect the other way; inactive means flat fitted curve, though single readings scatter. Where the call is inconclusive, the potency comes from a doubtful curve fit.
# Experiment: qHTS screen for small molecules that inhibit ELG1-dependent DNA repair in human embryonic kidney (HEK293T) cells expressing luciferase-tagged ELG1; further: nearly all actives have a fitted effect of over 55% in size
# Conditions: HEK293T ELG1-luciferase reporter, luminescence, 16 h, DNA damage induced by 5-fluorouridine; series mostly up to 46.1 µM
# Summary of the method: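 Overnight (16 hr) co-exposure of 2,000 cells/well to 5-fluorouridine and compound at 37 °C preceded detection. Luciferase was quantified via ONE-Glo luminescence; loss of signal denotes inhibition.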
# Potency means the concentration at half of the fitted maximal effect.
row,Compound,Potency
1,CCCOc1cccc(C(=O)N(Cc2ccccc2)C2CCS(=O)(=O)C2)c1 (stereo unspecified),inactive
2,COc1cc(/C=C/C(=O)OCC(=O)Nc2cc(S(=O)(=O)N3CCCCC3)ccc2C)ccc1O,"inconclusive: 14.6 µM [inhibitor, partial curve, poor fit]"
3,CC1=CC(=C2C(=O)c3ccccc3C2=O)C=C(C)N1C,"inconclusive: 16.4 µM [activator, partial curve]"
4,CCOC(=O)C1CCN(C(=O)COc2ccc(N(C)S(=O)(=O)c3ccc(C)cc3)cc2)CC1,inactive
5,COC(=O)c1ccc2c(=O)n(CCCCCC(=O)N3CCN(c4ccc(F)cc4)CC3)c(=O)[nH]c2c1,active: 2.91 µM
6,CS(=O)(=O)c1ccc(C(=O)Nc2ccc(S(=O)(=O)N3CCCCC3)cc2)cc1,inactive
7,CCn1c(SCC(N)=O)nnc1-c1cc2c(C)nn(-c3ccccc3)c2s1,"inconclusive: 29.1 µM [inhibitor, partial curve, poor fit]"
8,Cc1cccc(Nc2nnc(SCC(=O)c3ccc(Br)s3)s2)c1C,inactive
9,COc1cccc(C2=CC(=O)C[C@H](c3ccc(OC)c(OC)c3)C2)c1,"inconclusive: 29.1 µM [inhibitor, single point]"
10,Cc1cccc(N/N=C/c2ccncc2)c1,"inconclusive: 8.2 µM [activator, partial curve]"
11,CCN1C(=NCc2cc(OC)c(OC)c(OC)c2)N[C@@H](c2ccccc2)C(C(=O)OC)=C1C,"inconclusive: 23.1 µM [activator, single point]"
12,CN1/C(=C/C(=S)NC(=O)C2(C)CC2(Cl)Cl)C(C)(C)c2ccccc21 (stereo unspecified),"inconclusive: 25.9 µM [inhibitor, partial curve, poor fit]"
13,CCOC(=O)CC(NC(=O)Cn1nnc(-c2ccccc2)n1)c1ccc(OC)cc1 (stereo unspecified),"inconclusive: 16.4 µM [inhibitor, partial curve]"
14,COC(=O)[C@]1(CC(C)C)N[C@H](c2ccc(-c3ccc4c(c3)OCO4)cc2)[C@@H]2C(=O)N(C)C(=O)[C@@H]21,inactive
15,O=[N+]([O-])c1ccc2oc(C3CCCCC3)nc2c1,"inconclusive: 23.1 µM [activator, partial curve]"
16,COc1cc(OC)cc(-c2n[nH]c(=S)n2-c2cc(OC)ccc2OC)c1,inactive
17,COc1cccc(NC(=O)CSCc2cc(=O)n3nc(C4CC4)sc3n2)c1,inactive
18,N#Cc1c(F)cccc1NCc1cccnc1,"inconclusive: 29.1 µM [inhibitor, single point]"
19,CCc1ccc(-n2c(C)cc(/C=N/NC(=O)c3ccncc3)c2C)cc1,"inconclusive: 18.3 µM [inhibitor, single point]"
20,Cc1ccc(Cn2c(=O)c3c(nc4n3CCN4Cc3ccco3)n(C)c2=O)cc1,"inconclusive: 29.1 µM [inhibitor, single point]"
21,O=C(Nc1cccc(OC(=O)c2ccco2)c1)c1ccco1,"inconclusive: 1.3 µM [inhibitor, single point]"
22,NC(=O)CSc1nnc(Cc2cccs2)n1C1CCCCC1,"inconclusive: 3.66 µM [inhibitor, partial curve]"

# 5 of the compounds above, bar-delimited:
row | Compound | Potency
9 | COc1cccc(C2=CC(=O)C[C@H](c3ccc(OC)c(OC)c3)C2)c1 | inconclusive: 29.1 µM [inhibitor, single point]
13 | CCOC(=O)CC(NC(=O)Cn1nnc(-c2ccccc2)n1)c1ccc(OC)cc1 (stereo unspecified) | inconclusive: 16.4 µM [inhibitor, partial curve]
17 | COc1cccc(NC(=O)CSCc2cc(=O)n3nc(C4CC4)sc3n2)c1 | inactive
19 | CCc1ccc(-n2c(C)cc(/C=N/NC(=O)c3ccncc3)c2C)cc1 | inconclusive: 18.3 µM [inhibitor, single point]
20 | Cc1ccc(Cn2c(=O)c3c(nc4n3CCN4Cc3ccco3)n(C)c2=O)cc1 | inconclusive: 29.1 µM [inhibitor, single point]

# Following part.

row,Compound,Potency
1,Cc1ccc(/C=C/C(=O)Nc2cc(S(=O)(=O)N3CCOCC3)ccc2N2CCOCC2)cc1,"inconclusive: 29.1 µM [inhibitor, single point]"
2,COc1cc(-c2noc(C)c2C(=O)NCCCn2ccnc2)cc(OC)c1OC,"inconclusive: 20.6 µM [activator, partial curve, poor fit]"
3,Cc1ccc2nc(-c3ccc(SCC(=O)Nc4nc(C)cs4)nc3)[nH]c2c1,"inconclusive: 2.59 µM [activator, partial curve]"
4,C/C(=N\NC(=O)Cc1ccc(Cl)cc1)c1cccc(NC(=O)c2cccnc2)c1,"inconclusive: 23.1 µM [inhibitor, partial curve, poor fit]"
5,Cc1cccc(NC(=O)CC2NCCNC2=O)c1 (stereo unspecified),"inconclusive: 29.1 µM [activator, partial curve, poor fit]"
6,O=C(COC(=O)c1nc(Cl)c(Cl)c(Cl)c1Cl)NCc1ccccc1,"inconclusive: 29.1 µM [inhibitor, single point]"
7,COC(=O)Cc1ccc(NC(=S)N2CCCC(CO)C2)cc1 (stereo unspecified),"inconclusive: 2.59 µM [activator, full curve]"
8,N=c1c(C(=O)NCc2ccc(F)cc2)cc2c(=O)n3ccccc3nc2n1CC1CCCO1 (stereo unspecified),inactive
9,COCCOC(=O)C1=C(C)NC2(O)c3ccccc3C(=O)C12O (stereo unspecified),"inconclusive: 0.146 µM [inhibitor, full curve, poor fit]"
10,CCCCc1nnc(NC(=O)c2oc3ccc(OC)cc3c2C)s1,"inconclusive: 10.3 µM [activator, single point]"
11,Cc1cc(-c2csc(NC(=O)c3cccc(S(=O)(=O)N(C)C)c3)n2)c(C)n1-c1ccccc1,"inconclusive: 8.2 µM [inhibitor, partial curve, poor fit]"
12,O=C(N/N=C/c1ccc2c(c1)OCO2)c1cc(-c2ccccc2Cl)nc2ccccc12,"inconclusive: 20.6 µM [inhibitor, partial curve]"
13,CCOc1ccc(C(=O)c2ccc(OCC)c(N)c2)cc1N,"inconclusive: 14.6 µM [activator, partial curve]"
14,Cc1ccc(-c2cc(C(=O)NCc3ccco3)no2)cc1,"inconclusive: 14.6 µM [activator, partial curve]"
15,COc1ccc(C(=O)CSc2nnc(CNc3ccc(F)cc3)o2)cc1,"inconclusive: 14.6 µM [inhibitor, partial curve]"
16,Cc1ccccc1-n1nc(C(=O)c2cccs2)cc(-c2nc3ccccc3[nH]2)c1=N,active: 13 µM
17,O=C(CN1CCN(C(=O)c2cccc(S(=O)(=O)N3CCCC3)c2)CC1)Nc1ccccc1Cl,"inconclusive: 23.1 µM [inhibitor, partial curve, poor fit]"
18,CCN(Cc1ccc(OC)c(F)c1)C(=O)/C=C/c1ccc(S(=O)(=O)N2CCOCC2)cc1,"inconclusive: 10 µM [inhibitor, partial curve]"
19,O=C(Cn1cnc([N+](=O)[O-])c1)c1ccc(Cl)cc1,inactive
20,O=C(c1ccc(O)c(Cl)c1)N1CCN(S(=O)(=O)c2ccccc2)CC1,inactive
21,CN(c1ccccc1)S(=O)(=O)c1cccc(NC(=O)c2cc3ccccc3oc2=O)c1,"inconclusive: 20.6 µM [activator, partial curve]"
22,CC(C)N1CCN(Cc2ccc(-c3ccccc3)cc2)CC1CCO (stereo unspecified),inactive

row,Compound,Potency
1,CCC1Oc2ccc(C)cc2N(CC(=O)N(Cc2cccnc2)Cc2cccc(F)c2)C1=O (stereo unspecified),"inconclusive: 18.4 µM [inhibitor, single point]"
2,Cc1ccc2oc(-c3cccc(NC(=O)Cc4cccs4)c3)nc2c1,"inconclusive: 18.4 µM [activator, single point]"
3,O=C1C2C3C=CC(C3)C2C(=O)N1c1ccc(N2CCN(c3ccccn3)CC2)c([N+](=O)[O-])c1 (stereo unspecified),inactive
4,O=C(Nc1cccc(S(=O)(=O)N2CCCC2)c1)c1cc(-c2ccccn2)nc2ccccc12,"inconclusive: 16.4 µM [inhibitor, single point]"
5,O=C(Nc1cc(S(=O)(=O)N2CCOCC2)ccc1N1CCOCC1)c1ccccc1F,"inconclusive: 32.6 µM [inhibitor, partial curve, poor fit]"
6,CCOc1ccc(C(=O)Nc2nc(C)c(C(=O)OC)s2)cc1,"inconclusive: 2.91 µM [activator, full curve]"
7,Cc1noc(C)c1COc1ccccc1C(=O)N1CCN(c2cccc(Cl)c2)CC1,active: 9.2 µM
8,COc1ccc([C@@H]2[C@@H]3C(=O)N(C(C)(C)C)C(=O)[C@@H]3[C@]3(C)C(=O)N(c4ccc(C(F)(F)F)cc4)C(=O)N23)cc1,inactive
9,CC(C)NC(=O)c1[nH]nc2c1CCc1ccccc1-2,"inconclusive: 8.2 µM [activator, partial curve]"
10,COc1ccc(/C=C/C(=O)Nc2ccc(S(=O)(=O)Nc3onc(C)c3C)cc2)cc1OC,inactive
11,Cc1cccc(C(=O)NNC(=O)c2ccc(F)cc2)c1,"inconclusive: 16.4 µM [activator, partial curve, poor fit]"
12,O=C1NN=C(c2ccc(Br)cc2)CC1c1ccc(Cl)cc1 (stereo unspecified),inactive
13,Nc1ncnc(Nc2ccccc2)n1,"inconclusive: 13 µM [activator, partial curve, poor fit]"
14,Cn1nnnc1SCc1nc2ccccc2s1,"inconclusive: 16.4 µM [activator, partial curve]"
15,Cc1ccc(NC2=NCC(=O)N2Cc2cccs2)cc1C,"inconclusive: 29.1 µM [activator, single point]"
16,CC(C)NC(=O)N(C)C[C@H]1Oc2ccc(NC(=O)CCC(F)(F)F)cc2C(=O)N([C@H](C)CO)C[C@@H]1C,inactive
17,Cn1c(=NC(=O)COc2ccccc2)sc2ccccc21,"inconclusive: 13 µM [activator, partial curve]"
18,COC(=O)c1cc(S(=O)(=O)N2CCC(C)CC2)ccc1F,"inconclusive: 29.1 µM [activator, single point]"
19,OC1(c2ccc3ccccc3c2)CCN(Cc2ccccc2)C1 (stereo unspecified),"inconclusive: 18.4 µM [activator, single point]"
20,O=C(N/N=C/c1cccnc1)c1cccs1,"inconclusive: 18.3 µM [activator, partial curve]"
21,COc1cc(-c2nnc(-c3cc(OC)c(OC)c(OC)c3)o2)cc(OC)c1OC,active: 8.2 µM
22,COC(=O)c1ccc(Sc2ccccn2)c([N+](=O)[O-])c1,"inconclusive: 18.4 µM [activator, single point]"

# From PubChem BioAssay AID504467 (National Center for Advancing Translational Sciences (NCATS), 2011)
